PMC4439085

Sequences of proteins named here, by UniProt entry; tags and fusion partners are left off.
UniProt P40235: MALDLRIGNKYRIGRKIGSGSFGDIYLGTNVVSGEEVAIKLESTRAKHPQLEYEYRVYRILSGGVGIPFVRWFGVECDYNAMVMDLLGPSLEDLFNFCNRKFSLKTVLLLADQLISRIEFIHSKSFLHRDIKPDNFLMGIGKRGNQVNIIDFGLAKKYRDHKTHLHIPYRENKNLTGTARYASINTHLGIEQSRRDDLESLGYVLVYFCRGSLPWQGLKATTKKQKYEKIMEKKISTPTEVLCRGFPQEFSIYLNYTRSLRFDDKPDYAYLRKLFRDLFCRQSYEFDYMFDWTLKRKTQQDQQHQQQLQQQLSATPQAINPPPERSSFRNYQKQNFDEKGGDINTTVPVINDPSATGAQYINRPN

Tests used:
[1] = target: T1, Hhp2-TAP (Schizosaccharomyces pombe) (UniProt P40236); assay: affinity purification with mass spectrometry; tandem affinity purification (IgG Sepharose, TEV cleavage, calmodulin Sepharose) of TAP-tagged proteins from extracts of mitotically growing cells; IPP150 buffer; eluates analysed by LC-MS/MS
T1 sequence: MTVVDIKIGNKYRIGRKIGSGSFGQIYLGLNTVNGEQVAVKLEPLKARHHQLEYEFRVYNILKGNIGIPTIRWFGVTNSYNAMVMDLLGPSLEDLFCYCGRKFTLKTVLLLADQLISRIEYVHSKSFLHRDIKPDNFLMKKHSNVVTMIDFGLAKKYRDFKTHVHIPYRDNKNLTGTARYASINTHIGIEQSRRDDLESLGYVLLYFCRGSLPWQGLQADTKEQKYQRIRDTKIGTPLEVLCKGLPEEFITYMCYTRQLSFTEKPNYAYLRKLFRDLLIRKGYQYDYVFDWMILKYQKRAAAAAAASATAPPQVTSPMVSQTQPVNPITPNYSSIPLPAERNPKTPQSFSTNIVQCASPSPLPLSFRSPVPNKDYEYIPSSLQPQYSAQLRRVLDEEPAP

[2] = target: T1, Hhp2-TAP (Schizosaccharomyces pombe); assay: affinity purification with mass spectrometry; tandem affinity purification (IgG Sepharose, TEV cleavage, calmodulin Sepharose) of TAP-tagged proteins from extracts of meiotically induced cells harvested 2.5-3.5 hr after induction; IPP150 buffer (50 mM Tris-HCl pH 8.0, 150 mM NaCl, 10% glycerol, 0.1% NP-40); eluates analysed by LC-MS/MS
[3] = target: Hhp1-TAP (Schizosaccharomyces pombe) (UniProt P40235); assay: affinity purification with mass spectrometry; tandem affinity purification (IgG Sepharose, TEV cleavage, calmodulin Sepharose) of TAP-tagged proteins from extracts of mitotically growing cells; IPP150 buffer; eluates analysed by LC-MS/MS
[4] = target: Hhp1-TAP (Schizosaccharomyces pombe) (UniProt P40235); assay: affinity purification with mass spectrometry; tandem affinity purification (IgG Sepharose, TEV cleavage, calmodulin Sepharose) of TAP-tagged proteins from extracts of meiotically induced cells harvested 2.5-3.5 hr after induction; IPP150 buffer (50 mM Tris-HCl pH 8.0, 150 mM NaCl, 10% glycerol, 0.1% NP-40); eluates analysed by LC-MS/MS

| Molecule | binding [1] | binding [2] | binding [3] | binding [4] |
| --- | --- | --- | --- | --- |
| Hhp1 (from UniProt P40235 1-365) (enzyme) | no binding (only in mitotically growing cells) | binds | – | – |
| Hhp2 (enzyme, UniProt P40236 1-400) MTVVDIKIGNKYRIGRKIGSGSFGQIYLGLNTVNGEQVAVKLEPLKARHHQLEYEFRVYNILKGNIGIPTIRWFGVTNSYNAMVMDLLGPSLEDLFCYCGRKFTLKTVLLLADQLISRIEYVHSKSFLHRDIKPDNFLMKKHSNVVTMIDFGLAKKYRDFKTHVHIPYRDNKNLTGTARYASINTHIGIEQSRRDDLESLGYVLLYFCRGSLPWQGLQADTKEQKYQRIRDTKIGTPLEVLCKGLPEEFITYMCYTRQLSFTEKPNYAYLRKLFRDLLIRKGYQYDYVFDWMILKYQKRAAAAAAASATAPPQVTSPMVSQTQPVNPITPNYSSIPLPAERNPKTPQSFSTNIVQCASPSPLPLSFRSPVPNKDYEYIPSSLQPQYSAQLRRVLDEEPAP | – | – | no binding (only in mitotically growing cells) | binds |
| Rec8 (protein, UniProt P36626 1-561) MFYNQDVLTKEKGGMGVIWLAATLGSKHSLRKLHKKDIMSVDIDEACDFVAFSPEPLALRLSSNLMIGVTRVWAHQYSFFHSQVSTLHLRVRKELDHFTSKPFKNIDIQNEQTNPKQLLLAEDPAFIPEVSLYDAFNLPSVDLHVDMSSFTQPKENPNISVLETLPDSTSYLINTSQNYSLRNNVSSFVYEDSRAFSTEEPLDFEFDENGDIQELTKGTINSDPSLQAASQHSNLGSVQREYNSEEQESRIHMFEIDEDVLPLPVPLQSVMDSEHNENEPRALKRRKVQKLLEPDENIELSTRTLSQWRKNYVERMIALEATKYVRRRGASSAKKKELNKFFDWESFHPLLKPWIEKLKPSNNTPSEIDDVLRNIDTSEVEVGRDVQGELGLNIPWNTSSRSNSAINSKSHSQTGSEHSTPLLDTKYRKRLPHSPSMPSRVEFLPALESSQFHETLNSELSLQLSDDFVLYKNTQEENAHLMLSMEKECANFYEYAKTAIYENNGRITFSSLLPNDLKRPVVAQAFSHLLSLATKSAFLVKQDKPYSEISVSLNLKSTDAI | – | binds | – | binds |
| Psm1 (protein, UniProt O94383 1-1228) MGRLLRLEVENFKSYRGHQIIGPFEDFTSIIGPNGAGKSNLMDAISFVLGVKSSHLRSTNVKELIYRGKILQRDNTDFTDSSNPTTAYVKLMYELDNGEQREYKRAITPSGATEYKIDEEIVTFSEYCGSLQKENILVRARNFLVFQGDVETIASQSPLELSKLVEQISGSLEYKSEYDKSKDEQDKAVNLSAHSFNKKRGINAELRQYQEQKTEAERYQSQKEKRDSAQLVYLLWKLFHLEKSISSNMAEVTRLKADSIQLIERRDENTKEIEKLKEKEGSIRRNLLAFDRKVRKQEKLIASKRPELISIAEKALESKSNLRKIQRKAAEIEKDYSDQASTLQVLENQLTSLSAAEKEFLKDMQEKEQLKGLRLLPEDKEEYEGLRSEADKLNSNLLFKLQTLNRNIKVTSQSKDSLTSIVGDLESKIKSLHESVSSLDTERADLLAKINEKIESLELEKHDQQKKRLTYSELFHKTQELNEELQSCLQKILEASADRNESKQDAKKREALYALKRIYPEVKGRIIDLCTPTQKKYESAIAAALGKNFDAIVVETQAVAKECIDYIKEQRIGIMTFFPMDTIAASPVNQKFRGTHKGARLAIDVLNFESEYERVMISAVGNTLICDSMTVARDLSYNKRLNAKTVTLEGTVIHKTGLITGGSSNNRSAKHWDDHDFDLLTQTKDRLMHQIGEIEYQKSSCVITESDTVKLHSLESEISLLKDKYTVVSRSVEDKKKEIGHYESLIKEKQPHLSELEMELRNFVKSRDELQIQVEKVEEKIFSGFCKRIGISDIHTYDEIHRTFTQSFTQKQLEFTKQKSLLENRISFEKQRVSDTRLRLERMHKFIEKDQESIDNYEQNREALESEVATAEAELELLKEDFASENSKTEKILLAASEKKLVGKRLVSELTKLSGNITLLESEIDRYVSEWHAILRKCKLEDIDVPLREGSLTSIPIDDVSNSGDITMGEEPSEPVINFEKFGVEVDYDELDEELRNDGSESMASVLQEKLREYSEELDQMSPNLRAIERLETVETRLAKLDEEFAAARKAAKNAKERFNAVKQKRLQKFQAAFSHISEQIDPIYKELTKSPAFPLGGTAYLTLDDLDEPYLGGIKFHAMPPMKRFRDMDQLSGGEKTMAALALLFAIHSYQPSPFFVLDEIDAALDQTNVTKIANYIRQHASSGFQFVVISLKNQLFSKSEALVGIYRDQQENSSRTLSINLEGYVE | – | – | – | binds |
| Psm3 (protein, UniProt O42649 1-1194) MYITKIVIQGFKSYKDYTVIEPLSPHHNVIVGRNGSGKSNFFAAIRFVLSDAYTHLSREERQALLHEGPGATVMSAYVEVTFANADNRFPTGKSEVVLRRTIGLKKDEYSLDKKTVSKTEVINLLESAGFSRSNPYYIVPQGRVTSLTNAKDSERLELLKEVAGTQIYENRRAESNKIMDETIQKSEKIDELLQYIEERLRELEEEKNDLAVYHKKDNERRCLEYAIYSREHDEINSVLDALEQDRIAALERNDDDSGAFIQREERIERIKAEITELNHSLELLRVEKQQNDEDYTNIMKSKVALELQSSQLSRQIEFSKKDESSKLNILSELESKISEKENELSEILPKYNAIVSEADDLNKRIMLLKNQKQSLLDKQSRTSQFTTKKERDEWIRNQLLQINRNINSTKENSDYLKTEYDEMENELKAKLSRKKEIEISLESQGDRMSQLLANITSINERKENLTDKRKSLWREEAKLKSSIENVKDDLSRSEKALGTTMDRNTSNGIRAVKDIAERLKLEGYYGPLCELFKVDNRFKVAVEATAGNSLFHIVVDNDETATQILDVIYKENAGRVTFMPLNKLRPKAVTYPDASDALPLIQYLEFDPKFDAAIKQVFSKTIVCPSIETASQYARSHQLNGITLSGDRSDKKGALTAGYRDYRNSRLDAIKNVKTYQIKFSDLQESLEKCRSEIESFDQKITACLDDLQKAQLSLKQFERDHIPLKDELVTITGETTDLQESMHHKSRMLELVVLELHTLEQQANDLKSELSSEMDELDPKDVEALKSLSGQIENLSHEFDAIIKERAHIEARKTALEYELNTNLYLRRNPLKAEIGSDNRIDESELNSVKRSLLKYENKLQIIKSSSSGLEEQMQRINSEISDKRNELESLEELQHEVATRIEQDAKINERNAAKRSLLLARKKECNEKIKSLGVLPEEAFIKYVSTSSNAIVKKLHKINEALKDYGSVNKKAYEQFNNFTKQRDSLLARREELRRSQESISELTTVLDQRKDEAIERTFKQVAKSFSEIFVKLVPAGRGELVMNRRSELSQSIEQDISMDIDTPSQKSSIDNYTGISIRVSFNSKDDEQLNINQLSGGQKSLCALTLIFAIQRCDPAPFNILDECDANLDAQYRSAIAAMVKEMSKTSQFICTTFRPEMVKVADNFYGVMFNHKVSTVESISKEEAMAFVEG | – | binds | – | binds |

Results are given in words; binding and its absence hold for the method and conditions named. Binding seen in cells or lysates may run through a third protein. A yes stands for co-enrichment or nearness to the bait. Other partners may have been found. For part of these data: No binding means not detected with the bait. For part of these data: Where a sequence is shown, tags or fusion partners need not be part of it.
